Reference: the supplement of paper PMC10849652
The other results are listed elsewhere or left out.

By UniProt entry, the sequences of proteins in these tests, tags left out. Where a name states a change or a piece, a line headed by the entry shows the natural chain unless it says otherwise.
UniProt P23921: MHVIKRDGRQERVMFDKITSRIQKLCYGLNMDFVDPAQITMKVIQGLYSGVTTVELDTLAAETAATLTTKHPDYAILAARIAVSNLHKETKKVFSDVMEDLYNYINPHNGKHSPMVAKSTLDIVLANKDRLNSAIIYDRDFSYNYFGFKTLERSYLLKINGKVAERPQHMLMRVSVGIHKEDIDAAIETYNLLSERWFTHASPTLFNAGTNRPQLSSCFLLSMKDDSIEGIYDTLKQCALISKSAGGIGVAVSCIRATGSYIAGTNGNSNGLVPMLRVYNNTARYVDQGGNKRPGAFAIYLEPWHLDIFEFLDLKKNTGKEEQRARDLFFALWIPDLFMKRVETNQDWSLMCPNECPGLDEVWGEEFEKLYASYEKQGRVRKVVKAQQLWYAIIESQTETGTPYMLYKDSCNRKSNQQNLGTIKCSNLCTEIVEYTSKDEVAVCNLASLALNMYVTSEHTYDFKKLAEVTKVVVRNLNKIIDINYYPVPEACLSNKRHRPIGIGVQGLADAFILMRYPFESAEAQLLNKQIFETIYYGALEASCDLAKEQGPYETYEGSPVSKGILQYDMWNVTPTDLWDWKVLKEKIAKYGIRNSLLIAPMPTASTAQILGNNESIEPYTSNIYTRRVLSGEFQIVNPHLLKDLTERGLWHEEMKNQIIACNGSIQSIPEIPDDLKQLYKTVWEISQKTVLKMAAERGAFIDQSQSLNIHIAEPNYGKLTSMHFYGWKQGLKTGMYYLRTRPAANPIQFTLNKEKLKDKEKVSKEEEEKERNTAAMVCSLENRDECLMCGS
UniProt P78345: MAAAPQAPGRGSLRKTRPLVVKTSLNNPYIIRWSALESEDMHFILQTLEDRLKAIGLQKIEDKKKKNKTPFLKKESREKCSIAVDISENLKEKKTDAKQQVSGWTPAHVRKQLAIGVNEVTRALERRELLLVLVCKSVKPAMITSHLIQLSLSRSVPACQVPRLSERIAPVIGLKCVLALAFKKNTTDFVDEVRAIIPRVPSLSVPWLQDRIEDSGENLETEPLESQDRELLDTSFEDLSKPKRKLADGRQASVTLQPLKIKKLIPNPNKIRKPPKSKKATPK
UniProt P49247: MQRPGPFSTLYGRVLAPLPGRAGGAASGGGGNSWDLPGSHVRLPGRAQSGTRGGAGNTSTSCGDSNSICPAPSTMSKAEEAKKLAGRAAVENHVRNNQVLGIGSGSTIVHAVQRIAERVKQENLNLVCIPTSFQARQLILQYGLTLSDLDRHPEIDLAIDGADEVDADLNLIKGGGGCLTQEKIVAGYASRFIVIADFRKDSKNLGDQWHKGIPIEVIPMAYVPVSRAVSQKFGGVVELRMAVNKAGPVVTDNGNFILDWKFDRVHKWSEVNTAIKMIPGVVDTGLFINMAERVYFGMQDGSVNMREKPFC
UniProt P51812, whole entry, looked up: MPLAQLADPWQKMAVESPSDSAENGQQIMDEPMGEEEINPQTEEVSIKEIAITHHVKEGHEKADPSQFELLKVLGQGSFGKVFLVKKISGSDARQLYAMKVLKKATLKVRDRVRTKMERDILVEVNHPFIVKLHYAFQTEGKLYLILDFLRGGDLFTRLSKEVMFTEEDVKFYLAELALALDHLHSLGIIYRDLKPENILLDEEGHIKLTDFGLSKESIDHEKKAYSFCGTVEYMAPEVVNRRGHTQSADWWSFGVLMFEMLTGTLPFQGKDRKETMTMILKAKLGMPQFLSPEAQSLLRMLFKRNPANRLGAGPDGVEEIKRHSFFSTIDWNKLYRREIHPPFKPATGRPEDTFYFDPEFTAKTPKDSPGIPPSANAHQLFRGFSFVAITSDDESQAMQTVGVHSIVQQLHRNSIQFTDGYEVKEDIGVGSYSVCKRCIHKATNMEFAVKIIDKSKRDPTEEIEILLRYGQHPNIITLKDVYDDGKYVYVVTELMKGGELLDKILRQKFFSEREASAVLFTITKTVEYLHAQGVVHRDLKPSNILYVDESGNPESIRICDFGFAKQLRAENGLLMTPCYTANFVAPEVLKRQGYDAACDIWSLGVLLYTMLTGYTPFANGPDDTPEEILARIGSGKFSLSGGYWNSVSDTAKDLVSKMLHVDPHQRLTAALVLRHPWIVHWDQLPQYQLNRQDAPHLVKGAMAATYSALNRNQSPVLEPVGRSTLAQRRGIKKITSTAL
UniProt Q8N5L8: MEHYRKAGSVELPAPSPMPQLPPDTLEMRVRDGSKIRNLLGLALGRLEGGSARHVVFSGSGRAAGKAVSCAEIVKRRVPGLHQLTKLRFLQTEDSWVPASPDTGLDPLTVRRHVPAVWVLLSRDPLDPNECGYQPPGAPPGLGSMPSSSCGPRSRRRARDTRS
UniProt Q9P2E9: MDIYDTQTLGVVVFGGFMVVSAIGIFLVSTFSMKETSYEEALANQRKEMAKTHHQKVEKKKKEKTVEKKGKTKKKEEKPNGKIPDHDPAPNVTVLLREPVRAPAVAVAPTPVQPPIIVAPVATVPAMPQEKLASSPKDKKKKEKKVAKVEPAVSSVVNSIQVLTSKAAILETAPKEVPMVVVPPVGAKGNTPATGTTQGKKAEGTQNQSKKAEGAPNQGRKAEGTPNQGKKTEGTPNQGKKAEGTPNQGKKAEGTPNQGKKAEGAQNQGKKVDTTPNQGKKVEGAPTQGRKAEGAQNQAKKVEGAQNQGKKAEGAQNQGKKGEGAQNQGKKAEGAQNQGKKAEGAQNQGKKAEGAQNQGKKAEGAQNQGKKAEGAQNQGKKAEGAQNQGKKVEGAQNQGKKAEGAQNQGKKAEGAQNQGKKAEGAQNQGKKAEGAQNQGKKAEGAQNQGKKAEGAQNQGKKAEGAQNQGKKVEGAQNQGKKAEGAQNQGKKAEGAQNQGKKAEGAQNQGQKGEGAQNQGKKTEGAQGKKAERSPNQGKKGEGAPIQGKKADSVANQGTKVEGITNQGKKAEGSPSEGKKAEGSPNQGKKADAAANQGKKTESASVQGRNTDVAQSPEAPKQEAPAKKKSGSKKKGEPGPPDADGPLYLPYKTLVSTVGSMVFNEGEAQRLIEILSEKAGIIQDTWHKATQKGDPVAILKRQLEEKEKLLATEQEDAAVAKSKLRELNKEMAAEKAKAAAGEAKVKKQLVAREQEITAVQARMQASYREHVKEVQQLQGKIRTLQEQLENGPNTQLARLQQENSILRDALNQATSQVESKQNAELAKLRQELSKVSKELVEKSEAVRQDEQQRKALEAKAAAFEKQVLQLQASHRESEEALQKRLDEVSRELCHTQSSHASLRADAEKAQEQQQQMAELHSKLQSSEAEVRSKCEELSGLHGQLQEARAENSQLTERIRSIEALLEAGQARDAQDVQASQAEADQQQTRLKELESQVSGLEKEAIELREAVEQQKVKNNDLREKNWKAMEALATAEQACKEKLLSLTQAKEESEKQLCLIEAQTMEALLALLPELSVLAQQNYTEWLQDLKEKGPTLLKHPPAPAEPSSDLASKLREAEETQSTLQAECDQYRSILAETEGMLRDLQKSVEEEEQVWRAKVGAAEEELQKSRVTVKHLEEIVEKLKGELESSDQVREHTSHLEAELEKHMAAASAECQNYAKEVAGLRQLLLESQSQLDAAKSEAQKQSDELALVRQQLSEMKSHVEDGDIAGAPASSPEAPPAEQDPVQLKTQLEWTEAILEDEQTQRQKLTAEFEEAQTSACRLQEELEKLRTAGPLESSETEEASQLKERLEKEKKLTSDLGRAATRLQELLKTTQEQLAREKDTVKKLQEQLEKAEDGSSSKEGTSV
UniProt P23443: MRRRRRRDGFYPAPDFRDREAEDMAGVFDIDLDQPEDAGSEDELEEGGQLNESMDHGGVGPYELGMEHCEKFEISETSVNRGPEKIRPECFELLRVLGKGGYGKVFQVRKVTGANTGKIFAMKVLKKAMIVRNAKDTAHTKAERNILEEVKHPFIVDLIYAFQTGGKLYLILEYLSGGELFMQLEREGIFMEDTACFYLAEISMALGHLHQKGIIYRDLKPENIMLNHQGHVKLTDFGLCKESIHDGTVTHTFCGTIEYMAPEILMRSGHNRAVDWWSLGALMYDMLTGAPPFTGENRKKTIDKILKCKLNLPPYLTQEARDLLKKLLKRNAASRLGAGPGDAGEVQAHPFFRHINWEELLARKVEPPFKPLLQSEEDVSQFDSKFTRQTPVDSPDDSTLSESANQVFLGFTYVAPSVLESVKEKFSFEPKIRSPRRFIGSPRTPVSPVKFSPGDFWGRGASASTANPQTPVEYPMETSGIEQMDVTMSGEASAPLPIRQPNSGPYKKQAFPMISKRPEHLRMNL
UniProt Q7LG56, whole entry, looked up: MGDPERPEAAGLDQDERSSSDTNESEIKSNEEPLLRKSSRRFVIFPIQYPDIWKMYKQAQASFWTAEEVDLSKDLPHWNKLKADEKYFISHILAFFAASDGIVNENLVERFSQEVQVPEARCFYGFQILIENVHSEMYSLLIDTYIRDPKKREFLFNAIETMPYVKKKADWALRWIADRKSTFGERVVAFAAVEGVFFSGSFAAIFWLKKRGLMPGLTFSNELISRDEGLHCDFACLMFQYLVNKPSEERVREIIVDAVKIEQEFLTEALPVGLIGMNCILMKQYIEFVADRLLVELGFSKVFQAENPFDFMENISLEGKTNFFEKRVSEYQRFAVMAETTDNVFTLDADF
UniProt O95059: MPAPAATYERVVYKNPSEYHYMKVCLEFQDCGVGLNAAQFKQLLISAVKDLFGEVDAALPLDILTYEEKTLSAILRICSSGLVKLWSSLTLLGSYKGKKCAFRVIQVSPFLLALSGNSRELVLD

Experiments:
Assay in all cases: log2 fold change, soluble protein after heating vs DMSO (PISA); higher = thermal stabilisation; K562 cells, 10 uM, 30 min; active = over 0.2 and 3.5 SD of the protein, either way, in both replicates (recomputed)
[1] = compound: CC1=C(C=C(C=C1)NC(=O)C2=CC(=CC=C2)C(C)(C)C#N)NC3=CC4=C(C=C3)N=CN(C4=O)C
Outline: (§1)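 K562 cells at 2×10^6 cells/mL were treated for 30 min with 10 μM compound, and aliquots were heated for 3 min over 48°C-58°C before pooling. Extraction used PBS with 0.5% NP-40 at 4°C, and soluble protein was the supernatant after 21,000xg for 90 min, measured by TMTpro 16plex LC-MS/MS with channel sums equalised. Thermal stability values, relative to control samples and from duplicates, are log2 fold changes.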

[2] = compound: CC1=C(C=C(C=C1)NC(=O)C2=CC(=CC=C2)N(C)C)NC(=O)C3=CC=C(C=C3)O
Outline: as §1

[3] = compound: CC1=CC=C(C=C1)SC2=C3C=C(SC3=CN=C2)C(=O)N
Outline: as §1

[4] = compound: CC1=NC(=CC=C1)C2=C(N=C(N2)C(C)(C)C)C3=CC4=NC=CN=C4C=C3
Outline: as §1

Nexturastat A = compound: CCCCN(Cc1ccc(C(=O)NO)cc1)C(=O)Nc1ccccc1 [Nexturastat A]
Outline: as §1

vemurafenib = compound: CCCS(=O)(=O)Nc1ccc(F)c(C(=O)c2c[nH]c3ncc(-c4ccc(Cl)cc4)cc23)c1F [vemurafenib]
Outline: as §1

[5] = compound: CCCS(=O)(=O)Nc1ccc(F)c(C(=O)c2c[nH]c3ncc(Cl)cc23)c1F
Outline: as §1

[6] = compound: CCCc1cc(C)[nH]c(=O)c1CNC(=O)c1cc(-c2ccnc(N3CCN(C)CC3)c2)cc2c1cnn2C(C)C
Outline: as §1

givinostat = compound: CCN(CC)Cc1ccc2cc(COC(=O)Nc3ccc(C(=O)NO)cc3)ccc2c1 [givinostat]
Outline: as §1

barasertib = compound: CCN(CCCOc1ccc2c(Nc3cc(CC(=O)Nc4cccc(F)c4)[nH]n3)ncnc2c1)CCOP(=O)(O)O [barasertib]
Outline: as §1

Measured: log2 fold change

RPS13 (UniProt P62277)
inactive: [1] 0.006 | [2] 0.022 | [3] -0.044 | [4] -0.057 | Nexturastat A 0.119 | vemurafenib -0.144 | [5] -0.09 | [6] 0.091 | givinostat 0.045 | barasertib -0.101

RPS29 (UniProt P62273)
inactive: [1] 0.091 | [2] 0.144 | [3] -0.003 | [4] -0.019 | Nexturastat A 0.26 | vemurafenib -0.225 | [5] -0.203 | [6] 0.258 | givinostat -0.064 | barasertib -0.059

RPL19 (UniProt P84098)
inactive: [1] 0.005 | [2] 0.009 | [3] -0.073 | [4] -0.128 | Nexturastat A 0.319 | vemurafenib -0.183 | [5] -0.086 | [6] 0.173 | givinostat 0.027 | barasertib -0.099

RPS15A (UniProt P62244)
inactive: [1] -0.019 | [2] 0.029 | [3] -0.052 | [4] -0.095 | Nexturastat A 0.211 | vemurafenib -0.104 | [5] -0.03 | [6] 0.117 | givinostat 0.016 | barasertib -0.118

RRM1 (UniProt P23921)
inactive: [1] -0.021 | [2] 0.005 | [3] 0.004 | [4] 0.026 | Nexturastat A -0.093 | vemurafenib -0.007 | [5] 0.026 | [6] -0.061 | givinostat -0.03 | barasertib 0.006

RPL36A (UniProt P83881)
inactive: [1] -0.079 | [2] -0.017 | [3] -0.102 | [4] -0.213 | Nexturastat A 0.342 | vemurafenib -0.141 | [5] -0.119 | [6] 0.12 | givinostat 0.051 | barasertib -0.139

RPL30 (UniProt P62888)
inactive: [1] 0.017 | [2] -0.018 | [3] -0.068 | [4] -0.216 | Nexturastat A 0.371 | vemurafenib -0.229 | [5] -0.047 | [6] 0.202 | givinostat 0.07 | barasertib -0.184

RPS26 (UniProt P62854)
inactive: [1] 0.046 | [2] 0.03 | [3] -0.009 | [4] -0.06 | Nexturastat A 0.342 | vemurafenib -0.165 | [5] -0.038 | [6] 0.033 | givinostat 0.079 | barasertib -0.131

RPS27 (UniProt P42677)
inactive: [1] -0.031 | [2] 0.046 | [3] -0.033 | [4] -0.037 | Nexturastat A 0.106 | vemurafenib -0.023 | [5] -0.03 | [6] 0.079 | givinostat 0.125 | barasertib -0.077

RPS9 (UniProt P46781)
inactive: [1] 0.039 | [2] 0 | [3] -0.073 | [4] -0.016 | Nexturastat A 0.104 | vemurafenib -0.107 | [5] -0.066 | [6] 0.087 | givinostat 0.038 | barasertib -0.114

RPL28 (UniProt P46779)
inactive: [1] 0.037 | [2] 0 | [3] 0.013 | [4] -0.199 | Nexturastat A 0.393 | vemurafenib -0.263 | [5] -0.118 | [6] 0.298 | givinostat 0.09 | barasertib -0.171

RPP38 (UniProt P78345)
inactive: [1] -0.011 | [2] 0.008 | [3] -0.07 | [4] -0.01 | Nexturastat A -0.007 | vemurafenib -0.067 | [5] -0.032 | [6] 0.013 | givinostat -0.008 | barasertib -0.022

RPIA (UniProt P49247)
inactive: [1] -0.015 | [2] 0.01 | [3] 0.007 | [4] 0.007 | Nexturastat A -0.034 | vemurafenib -0.013 | [5] -0.001 | [6] -0.089 | givinostat -0.016 | barasertib 0.001

RPL37A (UniProt P61513)
inactive: [1] 0.019 | [2] 0.02 | [3] 0.016 | [4] -0.277 | Nexturastat A 0.458 | vemurafenib -0.311 | [5] -0.021 | [6] 0.246 | givinostat -0.021 | barasertib -0.235

RPS24 isoform 4 (UniProt P62847)
inactive: [1] 0.034 | [2] 0.002 | [3] -0.099 | [4] -0.07 | Nexturastat A 0.268 | vemurafenib -0.117 | [5] -0.089 | [6] 0.123 | givinostat -0.002 | barasertib -0.117

RPL18A (UniProt Q02543)
inactive: [1] 0.02 | [2] 0.002 | [3] -0.081 | [4] -0.263 | Nexturastat A 0.384 | vemurafenib -0.3 | [5] -0.099 | [6] 0.241 | givinostat 0.08 | barasertib -0.189

RPS6KA3 (UniProt P51812)
inactive: [1] -0.072 | [2] -0.157 | [3] 0.021 | [4] 0.01 | Nexturastat A 0.015 | vemurafenib 0.001 | [5] 0.016 | [6] 0.042 | givinostat -0.227 | barasertib 0.06

RPL10A (UniProt P62906)
inactive: [1] 0.038 | [2] 0 | [3] -0.075 | [4] -0.202 | Nexturastat A 0.399 | vemurafenib -0.262 | [5] -0.091 | [6] 0.292 | givinostat 0.144 | barasertib -0.225

RPLP0 (UniProt P05388)
inactive: [1] -0.032 | [2] 0 | [3] -0.085 | [4] -0.152 | Nexturastat A 0.361 | vemurafenib -0.21 | [5] -0.08 | [6] 0.249 | givinostat 0.157 | barasertib -0.182

2 consecutive entries from above:
RPS26 (UniProt P62854)
inactive: [1] 0.046 | [2] 0.03 | [3] -0.009 | [4] -0.06 | Nexturastat A 0.342 | vemurafenib -0.165 | [5] -0.038 | [6] 0.033 | givinostat 0.079 | barasertib -0.131

RPS27 (UniProt P42677)
inactive: [1] -0.031 | [2] 0.046 | [3] -0.033 | [4] -0.037 | Nexturastat A 0.106 | vemurafenib -0.023 | [5] -0.03 | [6] 0.079 | givinostat 0.125 | barasertib -0.077

Further entries:

RPP25L (UniProt Q8N5L8)
inactive: [1] -0.028 | [2] -0.015 | [3] 0.036 | [4] 0.02 | Nexturastat A -0.01 | vemurafenib -0.034 | [5] -0.035 | [6] -0.048 | givinostat -0.073 | barasertib -0.025

RRBP1 (UniProt Q9P2E9)
inactive: [1] -0.066 | [2] 0.032 | [3] -0.049 | [4] -0.159 | Nexturastat A 0.426 | vemurafenib -0.138 | [5] -0.012 | [6] 0.203 | givinostat 0.081 | barasertib -0.1

RPL15 (UniProt P61313)
inactive: [1] -0.049 | [2] 0 | [3] -0.035 | [4] -0.209 | Nexturastat A 0.394 | vemurafenib -0.341 | [5] -0.096 | [6] 0.276 | givinostat 0.136 | barasertib -0.204

RPS6KB1 (UniProt P23443)
inactive: [1] 0.035 | [2] -0.002 | [3] 0.011 | [4] -0.057 | Nexturastat A -0.069 | vemurafenib 0.012 | [5] 0.012 | [6] -0.09 | givinostat -0.018 | barasertib 0.002

RPL7A (UniProt P62424)
inactive: [1] -0.009 | [2] 0 | [3] -0.116 | [4] -0.283 | Nexturastat A 0.348 | vemurafenib -0.253 | [5] -0.156 | [6] 0.278 | givinostat 0.165 | barasertib -0.205

RPS3A (UniProt P61247)
inactive: [1] 0.011 | [2] 0.009 | [3] -0.081 | [4] -0.036 | Nexturastat A 0.069 | vemurafenib -0.104 | [5] -0.095 | [6] 0.071 | givinostat -0.033 | barasertib -0.109

RPS25 (UniProt P62851)
inactive: [1] 0.009 | [2] 0 | [3] -0.03 | [4] 0 | Nexturastat A 0.11 | vemurafenib -0.08 | [5] -0.102 | [6] 0.06 | givinostat 0.042 | barasertib -0.075

RPS12 (UniProt P25398)
inactive: [1] 0.036 | [2] 0.006 | [3] -0.013 | [4] -0.027 | Nexturastat A 0.038 | vemurafenib -0.057 | [5] -0.035 | [6] 0.073 | givinostat -0.035 | barasertib -0.059

RRM2B isoform 6 (UniProt Q7LG56)
inactive: [1] -0.028 | [2] 0.006 | [3] 0.046 | [4] -0.02 | Nexturastat A -0.066 | vemurafenib -0.023 | [5] -0.061 | [6] -0.023 | givinostat 0.002 | barasertib 0.047

RPS21 (UniProt P63220)
inactive: [1] -0.007 | [2] 0.01 | [3] -0.042 | [4] -0.007 | Nexturastat A -0.033 | vemurafenib -0.077 | [5] -0.072 | [6] -0.038 | givinostat -0.015 | barasertib -0.016

RPP14 (UniProt O95059)
inactive: [1] 0.086 | [2] 0.01 | [3] -0.031 | [4] -0.015 | Nexturastat A 0.129 | vemurafenib -0.004 | [5] 0.004 | [6] -0.037 | givinostat -0.116 | barasertib -0.087
